This is one part of the list.
tested on: T1, CTL2-GFP (C. trachomatis L2/434/Bu, GFP-expressing); set-up: species or system HeLa; Intracellular C. trachomatis growth in HeLa cells, bulk GFP fluorescence relative to DMSO; details: bulk GFP, single well; 28.5 h, 10 µM; inhibitor
T1 construct: L2/434/Bu, GFP-expressing

| Structure (SMILES) | % of control remaining |
| --- | --- |
| CC(=O)Nc1ccc(-n2cc(CN3CCC(Sc4ccccn4)CC3)nn2)cc1 [CBK149476] | 85.4289% |
| c1ccc(C(Oc2nccnc2-c2ccncc2)c2ccccc2)cc1 [CBK106728] | 105.795% |
| COc1ccc(C(C)C)cc1-c1cnc2[nH]c(=O)n(CCc3cccnc3)c2n1 [CBK064343] | 145.492% |
| CCC(=O)N1C2CCC1c1cnc3cc(-c4ccco4)nn3c1C2 (stereo not drawn) [CBK284384] | 75.5214% |
| CC(C)(C)c1ccc(S(=O)(=O)N2CCCC[C@H]2CCOC(=O)c2ncccc2C(=O)O)cc1 [CBK200066] | 121.334% |
| COc1ccc(C(=O)/C=C/c2ccc(N3N=C(c4ccccc4)CC3c3ccccc3)cc2)cc1 (stereo not drawn) [CBK262274] | 98.9806% |
| COC(=O)c1c(NC(=O)C(C)Oc2cc(C)c(Cl)c(C)c2)sc(C(C)=O)c1C (stereo not drawn) [CBK265678] | 125.901% |
| O=C(Nc1ccc(NC(=O)Nc2cccc(Cl)c2)cc1)Nc1cccc(Cl)c1 [CBK267623] | 111.861% |
| CCN(CC)C(=O)N1CCN(CCCC(=O)c2ccc(F)cc2)CC1 [CBK025042C] | 110.198% |
| O=C1NC2(CCCN(C(=O)c3ccco3)C2)Oc2ccccc21 (stereo not drawn) [CBK284800] | 111.362% |
| c1cncc(CNc2nccnc2-c2ccoc2)c1 [CBK037635] | 114.148% |
| CC1(C)Cc2nc3sc4c(=O)n(CC(=O)NCCc5ccccc5)cnc4c3cc2CS1 [CBK269180] | 118.586% |
| CCOc1ccccc1CNc1ccc(C2c3ccsc3CCN2C(=O)COC)cc1 (stereo not drawn) [CBK286461] | 123.509% |
| Cc1cc(C2CCCCCN2S(=O)(=O)c2ccc(F)cc2)on1 (stereo not drawn) [CBK284668] | 83.6917% |
| COCc1cn([C@H]2CO[C@H]3[C@@H]2OC[C@H]3OC)nn1 [CBK289490] | 155.414% |
| Cc1cnn(C2CCCN(C(=O)CCCc3cccs3)C2)c1 (stereo not drawn) [CBK304168] | 119.337% |
| CCOC(=O)c1cc(Cl)cnc1C1CCN(C(=O)C2CC2)CC1 [CBK284810] | 168.224% |
| O=C(Nc1ccc(N2CCN(C(=O)c3ccco3)CC2)cc1)c1cc([N+](=O)[O-])ccc1N1CCOCC1 [CBK269052] | 110.451% |
| Nc1ncn(Cc2ccccc2)c2nc(SCC(=O)O)nc1-2 [CBK267027] | 140.215% |
| COc1ccccc1/C=N/NC(=O)C(=O)NCc1ccccn1 [CBK262286] | 103.946% |
| Cc1cc(C(=O)N2C[C@H]3CC[C@](O)(c4ccc(F)cc4)[C@H]3C2)on1 [CBK284354] | 111.569% |

Some values from the list.
For % of control remaining, `CCC(=O)N1C2CCC1c1cnc3cc(-c4ccco4)nn3c1C2` (stereo not drawn) [CBK284384] has 75.5214%
For % of control remaining, `O=C(Nc1ccc(NC(=O)Nc2cccc(Cl)c2)cc1)Nc1cccc(Cl)c1` [CBK267623] has 111.861%

Reference: paper PMC12040169 (PLOS Biology, 2025)
